# PubChem BioAssay AID1224828 | NIAID, 2016
# Purpose: 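Find genes required for NF-kappaB p65 moving into the nucleus after LPS in mouse macrophages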 (primary screen)
# Cell system: mouse RAW264.7 G9 macrophage reporter cells (GFP-p65, Tnf promoter-mCherry)
# Reagents: siRNA pool against mouse genes, 100 nM
# Duration: 2 days siRNA transfection, then 40 min LPS before fixation
# Conditions: LPS (Salmonella minnesota R595) at 10 ng/ml
# Detection: 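Microscopy ratio of nuclear to perinuclear-ring GFP-p65 signal, scaled to the plate median; gene score is the average of two replicate robust z-scores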
# Reading the numbers: p65 translocation robust z-score: higher = more nuclear NF-kappaB p65 after LPS than the plate median; nuclear/cytoplasmic p65 ratio: higher = more nuclear NF-kappaB p65
# Active means: 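Active if robust z is above 3.3 (negative regulators) or below -1.56, the Tlr4 control median (positive regulators); activity score 50 or more; control wells not called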
# Calls: active = hit (p65 shift raised or lowered); inactive = no clear change
# Here is an unselected part of about 17,000 reagents. 762 of them (4.5%) were called active. 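Active calls include both raised and lowered p65 entry, mostly lowered; wells with fewer than 50 cells lack a z-score.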 Raw values vary from plate to plate and are shown uncorrected.
The first 3 entries, to show the layout:
gene symbol,p65 translocation robust z-score,"nuclear/cytoplasmic p65 ratio, rep 1","nuclear/cytoplasmic p65 ratio, rep 2",low cell count flag,outcome
Or5b106 (olfactory receptor family 5 subfamily B member 106),-1.84,1.36,1.16,enough cells to score,active
1700084J12Rik (RIKEN cDNA 1700084J12 gene),-1.15,1.16,1.36,enough cells to score,inactive
Or6f1 (olfactory receptor family 6 subfamily F member 1),,1.31,1.21,fewer than 50 cells per well; well left out of scoring,inactive

The listing, from the first entry:
gene symbol,p65 translocation robust z-score,"nuclear/cytoplasmic p65 ratio, rep 1","nuclear/cytoplasmic p65 ratio, rep 2",low cell count flag,outcome
Or5b106 (olfactory receptor family 5 subfamily B member 106),-1.84,1.36,1.16,enough cells to score,active
1700084J12Rik (RIKEN cDNA 1700084J12 gene),-1.15,1.16,1.36,enough cells to score,inactive
Or6f1 (olfactory receptor family 6 subfamily F member 1),,1.31,1.21,fewer than 50 cells per well; well left out of scoring,inactive
Bex1 (brain expressed X-linked 1),0.2,1.43,1.25,enough cells to score,inactive
"Pla2g6 (phospholipase A2, group VI)",-0.84,1.42,1.26,enough cells to score,inactive
"Sgce (sarcoglycan, epsilon)",-0.19,1.48,1.57,enough cells to score,inactive
Ttll1 (tubulin tyrosine ligase-like 1),0.93,1.66,1.33,enough cells to score,inactive
Phkg1 (phosphorylase kinase gamma 1),-0.68,1.66,1.22,enough cells to score,inactive
Vsir (V-set immunoregulatory receptor),,1.03,1.33,fewer than 50 cells per well; well left out of scoring,inactive
Coil (coilin),-0.09,1.53,1.8,enough cells to score,inactive
Sorcs2 (sortilin-related VPS10 domain containing receptor 2),0.48,1.51,1.74,enough cells to score,inactive
"Pdk4 (pyruvate dehydrogenase kinase, isoenzyme 4)",-0.02,1.63,1.42,enough cells to score,inactive
Abhd2 (abhydrolase domain containing 2),0.16,1.77,1.51,enough cells to score,inactive
"Cela1 (chymotrypsin-like elastase family, member 1)",,1.31,1.17,fewer than 50 cells per well; well left out of scoring,inactive
Ints1 (integrator complex subunit 1),0.86,1.66,1.57,enough cells to score,inactive
Stx2 (syntaxin 2),-2.26,1.22,1.07,enough cells to score,active
Prom1 (prominin 1),0.68,1.61,1.48,enough cells to score,inactive
"Bpnt2 (3'(2'), 5'-bisphosphate nucleotidase 2)",-0.79,1.49,1.5,enough cells to score,inactive
Pa2g4 (proliferation-associated 2G4),-1.25,1.4,1.24,enough cells to score,inactive
Bcl2l14 (BCL2 like 14),0.96,1.66,1.85,enough cells to score,inactive
Smarce1 (SWI/SNF related BAF chromatin remodeling complex subunit E1),-0.05,1.62,1.48,enough cells to score,inactive
Hnrnpa1 (heterogeneous nuclear ribonucleoprotein A1),,1.19,1.08,fewer than 50 cells per well; well left out of scoring,inactive
"Dsn1 (DSN1 homolog, MIS12 kinetochore complex component)",0.61,1.5,1.47,enough cells to score,inactive
Mfge8 (milk fat globule EGF and factor V/VIII domain containing),-0.22,1.74,1.47,enough cells to score,inactive
"Arr3 (arrestin 3, retinal)",-0.77,1.56,1.33,enough cells to score,inactive
"Guf1 (GUF1 homolog, GTPase)",-1.13,1.19,1.42,enough cells to score,inactive
Foxf1 (forkhead box F1),0.09,1.43,1.4,enough cells to score,inactive
Tapt1 (transmembrane anterior posterior transformation 1),,1.17,1.34,fewer than 50 cells per well; well left out of scoring,inactive
"P2rx6 (purinergic receptor P2X, ligand-gated ion channel, 6)",0.35,1.5,1.46,enough cells to score,inactive
Etnk1 (ethanolamine kinase 1),1.53,1.84,1.65,enough cells to score,inactive
Tma7 (translational machinery associated 7),,1.23,1.6,fewer than 50 cells per well; well left out of scoring,inactive
Zfp119b (zinc finger protein 119b),0.92,1.72,2,enough cells to score,inactive
Rnf168 (ring finger protein 168),,1.1,1.17,fewer than 50 cells per well; well left out of scoring,inactive
Snip1 (Smad nuclear interacting protein 1),0.2,1.6,1.56,enough cells to score,inactive
"Lysmd1 (LysM, putative peptidoglycan-binding, domain containing 1)",1.46,1.52,1.66,enough cells to score,inactive
Msantd2 (Myb/SANT-like DNA-binding domain containing 2),-0.69,1.55,1.65,enough cells to score,inactive
Mlkl (mixed lineage kinase domain-like),-0.76,1.45,1.29,enough cells to score,inactive
Ube2d3 (ubiquitin-conjugating enzyme E2D 3),-0.75,1.45,1.36,enough cells to score,inactive
Cypt1 (cysteine-rich perinuclear theca 1),0.93,1.33,1.42,enough cells to score,inactive
Zfp945 (zinc finger protein 945),0.88,1.5,1.64,enough cells to score,inactive
